Measured values reported in PMC11929268.
Changes are numbered by the printed parent chain. Numbers in names are those of the source. These are yes or no findings as the source states them, for the method shown. In cells and extracts the contact can be indirect. Some binding calls cover weakened binding; strength is not graded here. Tags and fused reporters may be left off the sequences shown.

T1: wild-type tight junction protein 2 (TJP2) with ECFP or EYFP fused to the C-terminus (human) (UniProt Q9UDY2)
T1 sequence: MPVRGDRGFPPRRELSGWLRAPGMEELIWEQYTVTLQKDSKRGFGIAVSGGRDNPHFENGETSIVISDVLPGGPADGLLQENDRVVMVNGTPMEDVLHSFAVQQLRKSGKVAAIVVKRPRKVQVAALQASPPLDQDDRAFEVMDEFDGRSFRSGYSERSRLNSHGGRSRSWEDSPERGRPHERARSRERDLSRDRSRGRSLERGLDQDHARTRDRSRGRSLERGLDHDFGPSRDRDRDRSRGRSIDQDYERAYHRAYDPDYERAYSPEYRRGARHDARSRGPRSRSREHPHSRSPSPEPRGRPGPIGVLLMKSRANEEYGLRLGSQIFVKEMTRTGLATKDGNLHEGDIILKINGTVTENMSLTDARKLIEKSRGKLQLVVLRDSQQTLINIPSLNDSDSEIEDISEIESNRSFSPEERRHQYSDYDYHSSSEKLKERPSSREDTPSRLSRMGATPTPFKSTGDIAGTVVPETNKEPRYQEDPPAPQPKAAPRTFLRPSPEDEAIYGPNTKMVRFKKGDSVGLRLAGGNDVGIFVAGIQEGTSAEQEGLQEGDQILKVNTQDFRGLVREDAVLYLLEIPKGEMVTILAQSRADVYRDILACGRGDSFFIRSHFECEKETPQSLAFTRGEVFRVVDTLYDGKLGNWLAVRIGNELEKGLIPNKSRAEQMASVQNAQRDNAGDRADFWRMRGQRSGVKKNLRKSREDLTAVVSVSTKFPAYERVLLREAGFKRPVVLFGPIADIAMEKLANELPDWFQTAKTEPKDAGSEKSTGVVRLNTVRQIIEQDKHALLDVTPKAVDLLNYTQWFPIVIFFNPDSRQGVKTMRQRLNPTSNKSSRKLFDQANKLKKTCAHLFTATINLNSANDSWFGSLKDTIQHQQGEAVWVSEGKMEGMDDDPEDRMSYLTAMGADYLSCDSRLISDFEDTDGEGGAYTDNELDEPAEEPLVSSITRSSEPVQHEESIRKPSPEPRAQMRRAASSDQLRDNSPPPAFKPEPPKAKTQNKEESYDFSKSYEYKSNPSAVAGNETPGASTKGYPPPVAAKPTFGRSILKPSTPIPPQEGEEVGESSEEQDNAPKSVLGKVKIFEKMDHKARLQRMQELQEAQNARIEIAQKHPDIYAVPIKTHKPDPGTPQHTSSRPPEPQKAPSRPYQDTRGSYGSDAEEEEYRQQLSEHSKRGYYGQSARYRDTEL

T2: TJP2 variant p.T636R with ECFP or EYFP fused to the C-terminus (human) (UniProt Q9UDY2)
T2 sequence: T1 sequence with T636R

B1: wild-type tight junction protein 2 (TJP2) with ECFP or EYFP fused to the C-terminus (protein, UniProt Q9UDY2-1 1-1190)
chain: T1 sequence
B2: TJP2 variant p.T636R with ECFP or EYFP fused to the C-terminus (protein, UniProt Q9UDY2-1 1-1190)
chain: T1 sequence with T636R

Experiments:
[1] = target: T1, wild-type tight junction protein 2 (TJP2) with ECFP or EYFP fused to the C-terminus (human); experiment: FRET or BRET; acceptor photobleaching FRET in fixed HEK 293 Phoenix cells co-transfected with the ECFP (donor) and EYFP (acceptor) fusions, 30 h after transfection, 4% paraformaldehyde, imaged in HBSS at room temperature by confocal microscopy
[2] = target: T2, TJP2 variant p.T636R with ECFP or EYFP fused to the C-terminus (human); experiment: as above

Row | Binder | binding [1] | binding [2]
1 | B1 | binds | binds
2 | B2 | binds | no binding
